The results in this text go back to paper PMC4154725.

Sequences of proteins named here, by UniProt entry; tags and fusion partners are left off.
UniProt E9Q777: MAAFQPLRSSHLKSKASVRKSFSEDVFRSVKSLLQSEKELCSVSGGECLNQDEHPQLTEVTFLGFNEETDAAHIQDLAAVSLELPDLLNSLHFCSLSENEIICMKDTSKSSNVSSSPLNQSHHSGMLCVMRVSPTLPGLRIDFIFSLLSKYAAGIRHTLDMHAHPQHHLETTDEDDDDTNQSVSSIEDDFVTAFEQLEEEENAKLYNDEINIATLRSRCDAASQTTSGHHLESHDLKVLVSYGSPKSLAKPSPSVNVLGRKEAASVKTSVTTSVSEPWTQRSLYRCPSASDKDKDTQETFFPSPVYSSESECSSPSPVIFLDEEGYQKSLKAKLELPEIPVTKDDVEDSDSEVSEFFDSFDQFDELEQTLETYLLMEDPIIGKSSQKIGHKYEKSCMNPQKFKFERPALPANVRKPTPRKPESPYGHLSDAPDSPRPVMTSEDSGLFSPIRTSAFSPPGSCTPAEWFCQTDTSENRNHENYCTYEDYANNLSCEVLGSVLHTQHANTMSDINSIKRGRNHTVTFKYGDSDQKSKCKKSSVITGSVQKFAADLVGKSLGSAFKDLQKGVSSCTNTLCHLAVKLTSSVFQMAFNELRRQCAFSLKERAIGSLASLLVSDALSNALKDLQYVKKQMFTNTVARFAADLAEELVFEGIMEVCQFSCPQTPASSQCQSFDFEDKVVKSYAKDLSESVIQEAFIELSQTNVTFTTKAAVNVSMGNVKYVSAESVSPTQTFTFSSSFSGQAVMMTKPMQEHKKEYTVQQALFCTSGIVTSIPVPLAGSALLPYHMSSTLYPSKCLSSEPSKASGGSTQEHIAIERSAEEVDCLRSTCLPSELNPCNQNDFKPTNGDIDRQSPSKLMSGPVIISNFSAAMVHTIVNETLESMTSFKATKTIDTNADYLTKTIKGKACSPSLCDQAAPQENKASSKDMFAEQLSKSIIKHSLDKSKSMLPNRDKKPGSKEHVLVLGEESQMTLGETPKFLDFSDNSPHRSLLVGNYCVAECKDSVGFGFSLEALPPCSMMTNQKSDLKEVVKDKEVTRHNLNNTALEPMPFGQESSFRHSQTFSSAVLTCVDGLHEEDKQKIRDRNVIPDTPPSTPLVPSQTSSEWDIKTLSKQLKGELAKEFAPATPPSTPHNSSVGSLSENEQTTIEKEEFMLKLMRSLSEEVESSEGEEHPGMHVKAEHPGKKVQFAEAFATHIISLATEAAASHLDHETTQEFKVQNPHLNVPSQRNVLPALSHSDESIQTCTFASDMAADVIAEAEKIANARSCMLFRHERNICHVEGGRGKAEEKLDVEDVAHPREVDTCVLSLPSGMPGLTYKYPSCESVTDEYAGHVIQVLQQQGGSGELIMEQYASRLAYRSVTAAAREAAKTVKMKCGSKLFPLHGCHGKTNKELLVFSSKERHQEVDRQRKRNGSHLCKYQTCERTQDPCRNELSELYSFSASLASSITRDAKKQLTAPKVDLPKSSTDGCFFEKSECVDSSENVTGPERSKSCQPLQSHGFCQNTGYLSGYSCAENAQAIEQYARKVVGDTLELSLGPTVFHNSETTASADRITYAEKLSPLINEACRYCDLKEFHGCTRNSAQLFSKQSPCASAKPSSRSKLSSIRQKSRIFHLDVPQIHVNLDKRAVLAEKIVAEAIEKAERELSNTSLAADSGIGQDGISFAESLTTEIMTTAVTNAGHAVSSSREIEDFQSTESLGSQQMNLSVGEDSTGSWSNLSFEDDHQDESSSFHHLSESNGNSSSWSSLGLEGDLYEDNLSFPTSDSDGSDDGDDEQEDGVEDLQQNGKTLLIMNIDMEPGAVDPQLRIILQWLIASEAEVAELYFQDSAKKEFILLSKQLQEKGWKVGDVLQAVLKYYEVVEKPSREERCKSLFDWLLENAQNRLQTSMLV
UniProt Q02248: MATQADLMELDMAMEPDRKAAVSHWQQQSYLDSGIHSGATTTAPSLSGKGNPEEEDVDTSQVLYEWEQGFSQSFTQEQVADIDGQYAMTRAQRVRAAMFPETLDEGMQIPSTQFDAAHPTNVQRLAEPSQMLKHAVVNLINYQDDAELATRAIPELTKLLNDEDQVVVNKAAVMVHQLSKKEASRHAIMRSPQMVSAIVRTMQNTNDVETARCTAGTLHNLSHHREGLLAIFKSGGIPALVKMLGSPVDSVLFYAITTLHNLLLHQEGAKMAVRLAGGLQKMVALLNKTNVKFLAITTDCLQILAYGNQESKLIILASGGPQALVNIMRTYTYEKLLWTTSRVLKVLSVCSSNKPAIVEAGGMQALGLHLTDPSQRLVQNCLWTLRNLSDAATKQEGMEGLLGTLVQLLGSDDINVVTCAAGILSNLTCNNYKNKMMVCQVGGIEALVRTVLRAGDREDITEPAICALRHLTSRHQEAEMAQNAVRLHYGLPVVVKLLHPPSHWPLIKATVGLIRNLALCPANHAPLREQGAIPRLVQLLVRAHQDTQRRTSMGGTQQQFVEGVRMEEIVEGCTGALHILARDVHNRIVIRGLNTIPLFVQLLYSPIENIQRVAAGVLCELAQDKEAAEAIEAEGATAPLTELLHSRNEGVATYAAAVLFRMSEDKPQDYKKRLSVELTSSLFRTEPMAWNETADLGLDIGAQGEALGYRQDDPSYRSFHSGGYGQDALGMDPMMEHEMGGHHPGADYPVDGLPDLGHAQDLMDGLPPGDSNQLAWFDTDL

The assay concerns the target T1, VE-cadherin (mouse (endogenous in MyEnd)) (UniProt P55284).
T1 sequence: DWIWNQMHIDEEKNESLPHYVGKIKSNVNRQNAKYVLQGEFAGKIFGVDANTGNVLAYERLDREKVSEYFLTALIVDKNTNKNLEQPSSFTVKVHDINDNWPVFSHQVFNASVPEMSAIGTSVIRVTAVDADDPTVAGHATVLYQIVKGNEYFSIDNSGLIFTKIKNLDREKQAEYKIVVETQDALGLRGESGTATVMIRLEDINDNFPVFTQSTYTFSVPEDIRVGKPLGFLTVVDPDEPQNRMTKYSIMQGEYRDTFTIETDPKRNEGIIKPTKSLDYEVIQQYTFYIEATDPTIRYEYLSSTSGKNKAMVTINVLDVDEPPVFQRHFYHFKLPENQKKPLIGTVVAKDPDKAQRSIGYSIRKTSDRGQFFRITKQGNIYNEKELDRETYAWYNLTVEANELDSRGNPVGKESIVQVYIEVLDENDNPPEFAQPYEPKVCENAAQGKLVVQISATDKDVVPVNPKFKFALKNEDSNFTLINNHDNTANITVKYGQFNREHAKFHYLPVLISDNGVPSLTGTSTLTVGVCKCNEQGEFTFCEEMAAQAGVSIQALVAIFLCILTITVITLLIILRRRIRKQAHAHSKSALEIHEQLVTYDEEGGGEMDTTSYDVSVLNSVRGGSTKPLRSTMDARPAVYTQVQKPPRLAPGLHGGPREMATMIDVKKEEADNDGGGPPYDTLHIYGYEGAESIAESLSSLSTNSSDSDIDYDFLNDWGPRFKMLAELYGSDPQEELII
Put plainly: co-IP; MyEnd lysate (0.5% Nonidet-40, 10 mM HEPES pH 7.9, 1.5 mM MgCl2, 10 mM KCl, 5 mM EDTA); IP with goat anti-VE-cadherin antibody and Protein G Plus-Agarose, 4°C; Western blot; control IP with beads, no antibody. On the technique in general: A western blot detects proteins with antibodies after separation by electrophoresis.

Results are given in words; binding and its absence hold for the method and conditions named. Binding seen in cells or lysates may run through a third protein. Some entries that bind do so weakly or less than the wild type.

For the substance AKAP220 (from UniProt E9Q777 1-1894), the binding entry is “binds”.
For ß-catenin (from UniProt Q02248 1-781), the binding entry is “binds”.
